From patent publication US10100081B2, “Trapping reagents for reactive metabolites screening” (Biogen MA Inc., priority 2012, dated 2018)

Test system: Pooled human liver microsomes (HLM)
Assay: In vitro liver microsomal incubations of test drugs with cysteine or cys-chol trapping, adducts analysed by UPLC-LTQ Orbitrap or UPLC-AB SCIEX 5600
Type: in vitro ADME
Conditions: LC-MS/MS, same experiments as for cys-chol (FIGS. 6A, 6B)

| Compound | detectable conjugate with carbamazepine |
| --- | --- |
| N[C@@H](CCC(=O)N[C@@H](CS)C(=O)NCC(=O)O)C(=O)O [GSH, glutathione] | did not produce any detectable conjugate |
| N[C@@H](CS)C(=O)O [Cysteine, cysteine] | did not produce any detectable conjugate |
